Like-named read-outs stand apart in the source and are kept apart here. Some of these results come from one statement about several compounds together.
Columns and labels:
[1] = target: T1, Kappa opioid receptor (KOR) (Homo sapiens, UniProt P41145); assay type: cell-based; settings: read-out: estimated EC50
[2] = target: T1, Kappa opioid receptor (KOR); assay type: cell-based; settings: read-out: estimated EC50; remark: listed apart in the source

The chains behind the UniProt entries cited, without tags or fusion partners. Where a name states a change or a piece, a line headed by the entry shows the natural chain unless it says otherwise.
UniProt P41145: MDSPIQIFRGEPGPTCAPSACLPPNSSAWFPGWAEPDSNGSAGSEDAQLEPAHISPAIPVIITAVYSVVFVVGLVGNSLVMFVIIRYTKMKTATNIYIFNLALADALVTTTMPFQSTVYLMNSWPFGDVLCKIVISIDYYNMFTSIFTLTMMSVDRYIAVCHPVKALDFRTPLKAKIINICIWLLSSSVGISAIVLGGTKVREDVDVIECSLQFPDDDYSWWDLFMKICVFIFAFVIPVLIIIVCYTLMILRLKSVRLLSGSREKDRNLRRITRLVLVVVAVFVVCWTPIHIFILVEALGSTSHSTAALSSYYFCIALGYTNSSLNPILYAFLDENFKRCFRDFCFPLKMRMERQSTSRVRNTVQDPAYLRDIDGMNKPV

## O6C-20-nor-SalA Enantiomer A [ALB-230936]
[1]
  EC50: < 100 pM
[2]
  EC50: < 100 pM
